Results deposited as PubChem BioAssay AID743454 (Peter MacCallum Cancer Centre, 2014)
The deposit covers about 18,000 reagents; shown is a part drawn at random. 450 of all reagents (2.5%) count as active. 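Single biological run; no consistent viability z cut-off exists, so the class columns, not z-scores, define the calls.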

Screen: 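Search for knock-downs that restore vorinostat killing in resistant colon cancer cells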 (primary screen)
Cell system: human HCT116-VR colon cancer cells, selected for vorinostat resistance
Reagents: siRNA pool against human genes, 40 nM siRNA pool
Duration: vorinostat for 24 h, read-out about 72 h after transfection
Conditions: vorinostat at 2.5 µM final
Measured: 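Two measures, CellTiter-Fluor viability and luminescent caspase 3/7 activity, each as fold change against same-plate mock wells, mean of duplicates, then screen-wide robust z-score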
Direction: viability robust z-score: higher = more viable cells than screen typical; caspase robust z-score: higher = more caspase 3/7 activity than screen typical
Rule for the call: 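a knock-down is a hit when classed RV1 or RV2 for lowered viability, or CA1 or CA2 for caspase activation; those lethal without drug were dropped; hits were retested singly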

Gene,viability hit class,caspase hit class,viability robust z-score,caspase robust z-score,activity call
CALB2 (GeneID 794),no change,no change,0.47,1.12,inactive
EID1 (GeneID 23741),no change,no change,-0.03,-0.03,inactive
TXNRD1 (GeneID 7296),no change,no change,0.48,0.9,inactive
MS4A5 (GeneID 64232),no change,no change,0.86,-0.84,inactive
RAB33A (GeneID 9363),no change,no change,-0.14,0.14,inactive
PYY (GeneID 5697),no change,no change,-1.64,1.23,inactive
ZBTB21 (GeneID 49854),no change,no change,0.69,-0.45,inactive
CPS1 (GeneID 1373),no change,no change,1.21,0.71,inactive
COLEC11 (GeneID 78989),no change,no change,0.34,-0.44,inactive
TEKT3 (GeneID 64518),no change,no change,0.44,-0.75,inactive
DEFB135 (GeneID 613209),no change,no change,0.41,0.34,inactive
DPEP1 (GeneID 1800),no change,no change,0.46,1.6,inactive
GAA (GeneID 2548),no change,no change,-0.56,2.65,inactive
DTD1 (GeneID 92675),no change,no change,-0.36,1.36,inactive
PAPSS2 (GeneID 9060),no change,no change,0.18,0.43,inactive
RNASEH2A (GeneID 10535),no change,no change,0.69,1.26,inactive
ABRA (GeneID 137735),no change,no change,0.11,-0.79,inactive
CNPY2 (GeneID 10330),no change,no change,1.68,-0.71,inactive
S100A16 (GeneID 140576),no change,no change,0.48,-0.9,inactive
SPANXN5 (GeneID 494197),no change,no change,-0.73,-1.16,inactive
CPLANE1 (GeneID 65250),no change,no change,-1.2,-1.04,inactive
MAB21L3 (GeneID 126868),no change,no change,-0.13,1.15,inactive
ALDH3B1 (GeneID 221),no change,no change,-0.61,-0.34,inactive
DAW1 (GeneID 164781),no change,no change,1.73,-0.72,inactive
CCDC74B (GeneID 91409),no change,no change,0.73,2.42,inactive
COL19A1 (GeneID 1310),no change,no change,-0.06,-0.6,inactive
ARPC4 (GeneID 10093),no change,no change,0.69,-0.64,inactive
CRYBB1 (GeneID 1414),no change,no change,-0.83,0.7,inactive
FUNDC1 (GeneID 139341),no change,no change,0.98,-0.24,inactive
PIGA (GeneID 5277),no change,no change,1.29,-0.62,inactive
DHDDS (GeneID 79947),no change,no change,1.11,1,inactive
SLC18B1 (GeneID 116843),no change,no change,0.58,-0.26,inactive
H3C4 (GeneID 8351),no change,no change,-1.25,-0.21,inactive
C2orf78 (GeneID 388960),no change,no change,0.87,-0.12,inactive
JRKL (GeneID 8690),no change,no change,1.1,-0.34,inactive
KLK7 (GeneID 5650),no change,no change,-0.82,2.3,inactive
ANAPC4 (GeneID 29945),no change,no change,0.12,2.19,inactive
OR5AU1 (GeneID 390445),no change,no change,1.32,-0.37,inactive
HEATR5B (GeneID 54497),no change,no change,0.15,-0.35,inactive

Part of the list above, limited to “viability hit class”:
COLEC11 (GeneID 78989): no change
TEKT3 (GeneID 64518): no change
DEFB135 (GeneID 613209): no change
DPEP1 (GeneID 1800): no change
GAA (GeneID 2548): no change
DTD1 (GeneID 92675): no change
